The source of these data is paper PMC8349660.

No constants are given. Whether binding was seen depends on the method and setting. In cells and extracts the contact can be indirect. Some binding calls cover weakened binding; strength is not graded here. For some of these results: Sequences can lack the tags named with a protein.

In one assay the target is GST-p53 (UniProt P04637). The assay is described as follows: pull-down; GST fusion protein from E. coli BL21 on Glutathione-Sepharose 4B beads mixed with in vitro-transcribed/translated partner (TNT), binding buffer 2 h at 4°C, five washes, Western blot; only the target purified. (In general: Immunoblotting shows a protein as a band on a membrane.)
In another assay the target is GST-fused BCAS3 (human) (UniProt Q9H6U6). The description is as above.
For assay [1], the target named is T1, GST-fused BCAS3-WD40 domain (1-504 aa) (human) (UniProt Q9H6U6).
T1 sequence: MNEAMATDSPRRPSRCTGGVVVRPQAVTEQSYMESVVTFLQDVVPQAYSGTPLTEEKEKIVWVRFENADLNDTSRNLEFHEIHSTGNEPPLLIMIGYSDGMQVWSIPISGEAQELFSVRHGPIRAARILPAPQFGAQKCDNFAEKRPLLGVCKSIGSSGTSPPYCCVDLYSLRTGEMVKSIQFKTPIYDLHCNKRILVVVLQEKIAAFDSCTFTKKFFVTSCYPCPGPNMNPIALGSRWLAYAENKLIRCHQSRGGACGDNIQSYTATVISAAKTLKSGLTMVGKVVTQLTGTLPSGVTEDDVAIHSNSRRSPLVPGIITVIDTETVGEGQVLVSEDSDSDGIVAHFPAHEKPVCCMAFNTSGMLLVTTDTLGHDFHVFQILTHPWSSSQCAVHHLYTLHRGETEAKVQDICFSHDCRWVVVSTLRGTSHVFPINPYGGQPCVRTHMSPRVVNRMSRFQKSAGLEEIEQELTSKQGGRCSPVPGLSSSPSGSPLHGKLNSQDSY
The description is as above.

Assay [2] concerns the target BCAS3 (breast cancer-amplified sequence 3) (human (endogenous in HEK 293T and MCF-7)) (UniProt Q9H6U6). Kind of assay: co-IP; whole-cell lysates of HEK 293T and MCF-7 cells, specific antibodies or normal IgG overnight at 4°C, protein A/G Sepharose beads 2 h at 4°C, immunoblot.

As to “in vitro transcribed-translated BCAS3 (from UniProt Q9H6U6 1-928)”, the binding entry with GST-p53 was “binds”.

With “in vitro-transcribed/translated p53 (from UniProt P04637 1-393)”, the binding result (in the assay with GST-fused BCAS3 (human); in assay [1]) was “binds” throughout. On to p53 (from UniProt P04637 1-393), for which the binding result in assay [2] was “binds”.
